Source: PubChem BioAssay AID2685 (National Center for Advancing Translational Sciences (NCATS), 2010)
The list shows a part of the results. The main result of the screen is listed elsewhere. These columns were measured beside it and carry no call. Compounds called inactive in the main read-out are mostly missing here. Potencies come from curve fits of mixed quality, noted in brackets.

Experiment: qHTS Assay for Lipid Storage Modulators in Drosophila S3 Cells;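 on cell number change: cells counted by Cell Tracker Red CMTPX staining in the red channel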
Details: BODIPY lipid droplet fluorescence, 18-24 h; for cell number change: measured here: cell count max response, cells fed with added oleic acid
How it was run: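 Drosophila S3 cells loaded with oleic acid (400 uM, as added) and compounds at several concentrations; lipid droplets imaged by 488-nm laser-scanning cytometry, 500–530 nm intensity and object ratio to cell channel. Percent activity normalized to 20 uM Triacsin C.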

[1] = measured here: cell number channel AC50, cells fed with added oleic acid
[2] = measured here: lipid fluorescence (Fed channel) AC50, cells fed with added oleic acid

Structure (SMILES) | cell number change | AC50 [1] | AC50 [2]
Cc1ccc2c(c1)N(CCC(=O)NCc1cccnc1)C(=O)CO2 | -26.2% | 0.00461 µM [falling, full curve, poor fit] | 
Cc1ccc[n+](/C(C(=S)NCc2ccco2)=C(/[O-])c2ccccc2Cl)c1 |  |  | 6.51 µM [falling, partial curve]
CCc1nc(SCC(=O)N2CCCCCC2)c2c(=O)n(C)c(=O)n(C)c2n1 | -31.1% | 0.58 µM [falling, full curve] | 0.731 µM [falling, full curve]
CC1CCN(C(=O)CCc2nc3cc(S(=O)(=O)N(C)C)ccc3n2C)CC1 | -9.87% |  | 6.51 µM [rising, single point]
COCCN(C(=S)Nc1ccccc1C)C(C)c1cccnc1 (centres undefined) |  | 3.66 µM [rising, partial curve] | 4.11 µM [rising, partial curve]
CCC/C=C(\CCC)C(NC(=O)OCC(C)C)c1ccc(C(=O)OC)cc1 (centres undefined) | 23.7% |  | 16.4 µM [rising, partial curve]
CC(=O)c1c(N2CCN(Cc3ccccc3)CC2)nc(=S)n(-c2ccccc2)c1C |  | 3.66 µM [rising, single point] | 
CCc1nnc(NC(=O)c2sc3nc4c(cc3c2N)CCCCCC4)s1 | -66.5% | 11.6 µM [falling, partial curve] | 9.2 µM [falling, partial curve]
Cc1ccc(S(=O)(=O)NCC(=O)N(CC(=O)NCc2ccco2)Cc2ccc3c(c2)OCO3)cc1 | -17.2% |  | 4.61 µM [rising, partial curve]
CCOC(=O)c1[nH]cnc1C(=O)Nc1ccc(C)cc1 | 20.4% |  | 0.164 µM [rising, full curve, poor fit]
CCOC(=O)CNC(=O)C1(/C=C/c2ccccc2)CC(=O)N1c1ccc(C)cc1 (centres undefined) | -5.56% |  | 
CCOC(=O)N1CCC(NS(=O)(=O)c2cc(Br)cc3c2N(C(=O)CC)CC3)CC1 | -7.57% |  | 
COc1ccc(N2C(=O)CCC(C(=O)Nc3ccccn3)C2c2ccc(OC)c(OC)c2)cc1 (centres undefined) | 32.4% | 1.3 µM [rising, full curve, poor fit] | 20.6 µM [rising, single point]
Cc1cccc(C)c1OCC(=O)Nc1ccccc1C(=O)N1CCOCC1 | -9.25% |  | 
CCOc1cccc(C(=O)Nc2cccc(-c3nnc(-c4ccc(C)cc4)o3)c2)c1 |  | 2.06 µM [falling, single point] | 
CSCCC(NS(=O)(=O)c1ccc(Br)cc1)C(=O)OCC(=O)NC1CC1 (centres undefined) | 9.13% |  | 
N#Cc1cc(C(=O)c2ccccc2O)cn(-c2ccc(Cl)cc2)c1=O | 25.4% |  | 
Cc1cc(C)n2nc(SCc3nnc(-c4cccs4)o3)nc2n1 | 29.8% |  | 7.31 µM [falling, partial curve, poor fit]
CC(C)Oc1ncnc2c1[nH]c1ccccc12 | -23.5% |  | 29.1 µM [falling, single point]
O=C(NNc1cccc(Cl)n1)C(F)(F)F | 15% |  | 6.51 µM [falling, single point]

Structure (SMILES) | cell number change | AC50 [1] | AC50 [2]
OC1(c2cn(Cc3ccccc3)nn2)CCCCC1 | -30.3% | 23.1 µM [falling, single point] | 
Cc1cc(NC(=O)CSc2nc3c(cc2C#N)CCC3)no1 | 19.4% |  | 29.1 µM [falling, single point]
COc1cccc(N2CCN(CC(=O)Nc3ccccc3C(=O)NCc3ccccc3)CC2)c1 | -10.8% |  | 0.00461 µM [falling, full curve, poor fit]
CSc1nc2cc(C)nn2c(-c2ccc(C(C)(C)C)cc2)c1C#N | 22.6% | 2.91 µM [rising, partial curve] | 1.84 µM [rising, partial curve]
Cc1ccc(C(C[N+](=O)[O-])c2c(-c3ccccc3O)[nH][nH]c2=O)cc1 (centres undefined) | -32.5% | 0.0291 µM [falling, full curve] | 29.1 µM [falling, single point]
CCCCCC1CCC(c2nnc(SCC(C)=O)o2)CC1 (centres undefined) | -15% |  | 6.51 µM [falling, single point]
CCCCNC(=O)C1CCC(CNS(=O)(=O)c2ccc(C)cc2)CC1 (centres undefined) |  |  | 2.91 µM [falling, partial curve]
Cc1cccc(NC(=S)NCC(c2cccnc2)N2CCOCC2)c1C (centres undefined) | 19.4% |  | 0.731 µM [rising, partial curve, poor fit]
COc1ccc(C)cc1N(CC(=O)N1CCCCCC1)S(=O)(=O)c1ccc(C)cc1 | 7.04% |  | 0.0164 µM [falling, full curve, poor fit]
CCC(C)N1CC(C(=O)NC2CCCCC2)CC1=O (centres undefined) | 23.2% | 1.64 µM [rising, full curve, poor fit] | 14.6 µM [rising, partial curve]
COc1ccc(N2CCN(C(CNC(=O)C3CCCCC3)c3ccco3)CC2)cc1 (centres undefined) |  |  | 0.164 µM [falling, full curve, poor fit]
COc1ccc(NC(=O)C(OC)c2ccccc2)cc1Cl (centres undefined) |  |  | 13 µM [rising, partial curve, poor fit]
CCOc1ccc(-n2cnc3sc4c(c3c2=O)CCCC4)cc1 | 9.07% | 0.164 µM [rising, full curve, poor fit] | 6.51 µM [rising, partial curve, poor fit]
CC(C)(C)[C@H]1CCC(=O)N([C@H](CSc2ccc(Br)cc2)Cc2ccccc2)CC1 | 7.43% |  | 20.6 µM [rising, single point]
O=C(NC(=S)NC1CCCCC1)c1ccc(F)cc1 | 28.1% |  | 2.31 µM [rising, partial curve, poor fit]
COc1ccc(-c2noc(CCC(=O)Nc3nc4ccccc4s3)n2)cc1 | -13.3% |  | 0.13 µM [falling, full curve, poor fit]
CCCOC(=O)C1C2C=CC(C3CC23)C1C(=O)OCC(=O)c1ccccc1 (centres undefined) | 39.3% | 25.9 µM [rising, single point] | 
Cc1c(C(=O)OC(C)C)sc2nc[nH]c(=O)c12 | -28.1% |  | 0.13 µM [falling, full curve, poor fit]
CC(=O)c1ccc(OCCCC(=O)N2CCN(S(=O)(=O)c3ccc(C(C)C)cc3)CC2)cc1 |  | 2.91 µM [rising, single point] | 
CC(C)CN1CCN(Cc2ccc3ncccc3c2)CC1CCO (centres undefined) | 10.1% |  | 25.9 µM [rising, single point]

Sorted by heavy-atom count (low to high): some entries from above.
Structure (SMILES) | cell number change | AC50 [1] | AC50 [2]
O=C(NC(=S)NC1CCCCC1)c1ccc(F)cc1 | 28.1% |  | 2.31 µM [rising, partial curve, poor fit]
COc1ccc(NC(=O)C(OC)c2ccccc2)cc1Cl (centres undefined) |  |  | 13 µM [rising, partial curve, poor fit]
CCOc1ccc(-n2cnc3sc4c(c3c2=O)CCCC4)cc1 | 9.07% | 0.164 µM [rising, full curve, poor fit] | 6.51 µM [rising, partial curve, poor fit]

The results go on:

Structure (SMILES) | cell number change | AC50 [1] | AC50 [2]
CC(=O)c1ccc(-c2cc([C@H]3[C@H]4C=CC[C@@H](C)[C@@H]4C(=O)N3Cc3ccccc3)ccc2F)cc1 | -19.6% |  | 18.4 µM [falling, single point]
CN(Cc1ccc(C(C)(C)C)cc1)C(=O)C1CSC2(C)CCC(=O)N12 (centres undefined) | 38.8% | 32.6 µM [rising, single point] | 1.64 µM [rising, partial curve]
Cc1csc(SCC(=O)Nc2nc3ccccc3s2)n1 | 3.11% |  | 
CCn1c(=O)[nH]c2cc(C(=O)N3CCN(c4ccccc4)CC3)ccc2c1=O | 12.2% |  | 29.1 µM [falling, single point]
CCCCCCOc1ccc(N2C(=O)CC(N3CCN(CCN=CC4=C(O)CC(C)(C)CC4=O)CC3)C2=O)cc1 (centres undefined) | -30.6% |  | 0.00461 µM [falling, full curve, poor fit]
COc1ccc(/C=N/n2c(=O)[nH]c3c([nH]c4ccc(F)cc43)c2=O)cc1CN1CCCCC1 | 18.3% | 7.31 µM [falling, partial curve, poor fit] | 
Cc1cc(N2CCN(C)CC2)n2nc(-c3ccc(Cl)cc3)nc2n1 | 9.59% |  | 0.517 µM [rising, full curve, poor fit]
C/C(=N/NC(N)=S)c1cc2ccc(O)cc2oc1=O | -15.3% | 2.06 µM [falling, partial curve, poor fit] | 0.651 µM [falling, full curve]
CCOc1ccc(CCn2c(-c3ccco3)nc3ccccc3c2=O)cc1OCC | -13.8% |  | 1.64 µM [rising, partial curve]
Cc1sc2ncnc(SCC(=O)Nc3nc(-c4ccc(F)c(F)c4)cs3)c2c1C | -16.5% |  | 29.1 µM [falling, single point]
CN(Cc1ccccc1)Cc1nc2c(c(=O)n(C)c(=O)n2C)n1Cc1ccc(Cl)cc1 |  | 1.84 µM [rising, partial curve] | 1.64 µM [rising, partial curve]
COc1ccc2[nH]c3c(=O)n(CCCC(=O)NC4CCC(C)CC4)c(=S)[nH]c3c2c1 (centres undefined) |  |  | 3.66 µM [falling, single point]
CCCNC(=O)C(=O)Nc1ccc2c(c1)N(S(=O)(=O)c1cccs1)CCC2 | -2.02% | 0.461 µM [rising, single point] | 
COC(=O)Cn1cnc(=O)c(C#N)c1/C=C/N(C)C | -14.9% | 0.731 µM [falling, full curve, poor fit] | 
CCOc1ccc(NC(=O)C2CCC(N3C(=O)C4CC=CCC4C3=O)CC2)cc1 (centres undefined) | -12.1% |  | 
CCCCOC(=O)C1[C@H]2C(=O)N(CCc3ccccc3)C[C@]23C=C[C@H]1O3 (some centres undefined) | -4.4% |  | 29.1 µM [rising, single point]
O=c1[nH]nc(SCCS(=O)(=O)c2ccc(F)cc2)n1-c1ccccc1 | 11.7% |  | 1.64 µM [rising, full curve, poor fit]
CCOC(=O)c1cnn(Cc2ccc(C)cc2)c1N | 38.7% |  | 
